According to publication PMC3184960:
No constants are given. Whether binding was seen depends on the method and setting. Binding seen in cells or lysates may run through a third protein. Some entries that bind do so weakly or less than the wild type.

Amino acid sequences for entries named in this document (tags omitted).
UniProt P03372: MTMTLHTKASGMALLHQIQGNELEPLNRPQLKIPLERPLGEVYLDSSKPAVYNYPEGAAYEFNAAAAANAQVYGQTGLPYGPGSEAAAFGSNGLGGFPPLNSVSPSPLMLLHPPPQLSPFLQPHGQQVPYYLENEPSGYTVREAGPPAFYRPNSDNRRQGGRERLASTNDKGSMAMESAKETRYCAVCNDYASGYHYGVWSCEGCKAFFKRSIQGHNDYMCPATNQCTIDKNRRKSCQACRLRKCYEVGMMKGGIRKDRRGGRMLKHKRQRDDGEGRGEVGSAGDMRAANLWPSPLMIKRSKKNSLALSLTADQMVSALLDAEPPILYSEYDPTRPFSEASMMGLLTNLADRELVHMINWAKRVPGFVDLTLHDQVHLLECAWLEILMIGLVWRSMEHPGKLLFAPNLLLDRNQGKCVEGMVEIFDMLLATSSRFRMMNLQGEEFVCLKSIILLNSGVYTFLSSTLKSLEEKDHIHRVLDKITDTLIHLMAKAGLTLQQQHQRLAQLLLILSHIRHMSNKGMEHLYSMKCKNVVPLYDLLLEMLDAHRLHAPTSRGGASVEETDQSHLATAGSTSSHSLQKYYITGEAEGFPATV
UniProt P19785: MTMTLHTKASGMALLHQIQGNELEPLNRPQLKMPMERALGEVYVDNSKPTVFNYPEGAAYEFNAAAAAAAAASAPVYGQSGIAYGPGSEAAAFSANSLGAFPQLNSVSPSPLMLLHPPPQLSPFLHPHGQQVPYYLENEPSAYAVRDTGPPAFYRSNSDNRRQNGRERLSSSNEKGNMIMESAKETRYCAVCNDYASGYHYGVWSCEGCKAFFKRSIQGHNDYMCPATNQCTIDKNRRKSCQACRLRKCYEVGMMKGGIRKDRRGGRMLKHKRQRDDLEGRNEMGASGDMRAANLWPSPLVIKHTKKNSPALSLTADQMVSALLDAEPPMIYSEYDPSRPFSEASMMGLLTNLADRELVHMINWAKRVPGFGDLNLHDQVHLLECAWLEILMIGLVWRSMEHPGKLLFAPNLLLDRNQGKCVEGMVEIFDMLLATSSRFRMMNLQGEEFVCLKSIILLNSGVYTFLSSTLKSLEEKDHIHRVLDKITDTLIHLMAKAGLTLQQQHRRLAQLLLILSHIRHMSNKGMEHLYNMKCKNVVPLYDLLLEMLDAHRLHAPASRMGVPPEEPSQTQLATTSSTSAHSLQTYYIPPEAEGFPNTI

Assays:
[1] = biological target: T1, XAP2, in vitro translated from XAP2-pSG5 (human) (UniProt O00170); assay: co-IP; 35S-labelled XAP2 and ERα made in rabbit reticulocyte lysate, mixed in equal amounts, 60 min on ice; precipitated with XAP2 antibody (or rabbit IgG) and Sepharose A/G; SDS-PAGE
T1 sequence (chain, 35S-Methionine (radioactively labeled)): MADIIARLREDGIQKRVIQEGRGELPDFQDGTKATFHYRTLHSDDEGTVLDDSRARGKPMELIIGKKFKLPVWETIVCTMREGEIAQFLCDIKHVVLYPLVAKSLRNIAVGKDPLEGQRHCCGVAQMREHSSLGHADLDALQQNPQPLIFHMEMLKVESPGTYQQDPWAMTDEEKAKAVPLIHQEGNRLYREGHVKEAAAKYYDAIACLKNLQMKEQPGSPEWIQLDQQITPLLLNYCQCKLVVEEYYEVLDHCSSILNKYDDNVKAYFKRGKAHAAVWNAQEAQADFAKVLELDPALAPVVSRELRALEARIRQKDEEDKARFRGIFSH

[2] = biological target: T2, Hepatitis B virus X protein associated protein 2 (XAP2), endogenous in HC11 cells (mouse (endogenous in HC11)) (UniProt O08915); assay: co-IP; HC11 whole cell extract (0.4 M KCl, 20 mM Hepes pH 7.4), cells treated with DMSO or 10 nM E2 for 1 h; 200 µg protein with 10 mM Na2MoO4 and anti-ARA9 (XAP2) antibody at 4°C, protein-G-Sepharose; blot for ERα
T2 sequence: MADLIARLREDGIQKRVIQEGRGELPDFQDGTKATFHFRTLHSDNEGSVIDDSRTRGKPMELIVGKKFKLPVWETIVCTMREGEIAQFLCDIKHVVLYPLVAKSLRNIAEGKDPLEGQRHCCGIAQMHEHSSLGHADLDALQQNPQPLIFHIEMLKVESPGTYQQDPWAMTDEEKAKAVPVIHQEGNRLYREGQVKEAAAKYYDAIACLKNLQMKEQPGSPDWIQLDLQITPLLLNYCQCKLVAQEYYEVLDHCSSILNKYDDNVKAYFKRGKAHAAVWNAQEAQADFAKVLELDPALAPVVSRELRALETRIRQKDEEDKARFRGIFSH

Substance | binding [1] | binding [2]
ERα, in vitro translated from ERα-pSG5 (from UniProt P03372 1-595) (receptor) | binds | –
Estrogen receptor α (ERα), endogenous in HC11 cells (from UniProt P19785 1-599) | – | binds
